According to the supplement of paper PMC10849652:
The list shows a part of the results.

Protein sequences, listed by entry. Tags and fused reporters are not part of them. Lines headed by an entry give the natural chain unless they say otherwise; changes in a name come on top.
UniProt Q9UIM3: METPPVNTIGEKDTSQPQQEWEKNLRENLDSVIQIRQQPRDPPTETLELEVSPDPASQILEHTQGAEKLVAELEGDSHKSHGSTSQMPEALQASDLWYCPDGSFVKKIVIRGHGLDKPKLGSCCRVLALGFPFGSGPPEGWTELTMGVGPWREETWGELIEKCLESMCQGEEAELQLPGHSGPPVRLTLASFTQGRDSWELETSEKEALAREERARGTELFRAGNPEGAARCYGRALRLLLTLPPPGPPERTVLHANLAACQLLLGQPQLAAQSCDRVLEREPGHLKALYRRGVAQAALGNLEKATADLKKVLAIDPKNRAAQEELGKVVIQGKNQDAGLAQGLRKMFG
UniProt Q8NFF5: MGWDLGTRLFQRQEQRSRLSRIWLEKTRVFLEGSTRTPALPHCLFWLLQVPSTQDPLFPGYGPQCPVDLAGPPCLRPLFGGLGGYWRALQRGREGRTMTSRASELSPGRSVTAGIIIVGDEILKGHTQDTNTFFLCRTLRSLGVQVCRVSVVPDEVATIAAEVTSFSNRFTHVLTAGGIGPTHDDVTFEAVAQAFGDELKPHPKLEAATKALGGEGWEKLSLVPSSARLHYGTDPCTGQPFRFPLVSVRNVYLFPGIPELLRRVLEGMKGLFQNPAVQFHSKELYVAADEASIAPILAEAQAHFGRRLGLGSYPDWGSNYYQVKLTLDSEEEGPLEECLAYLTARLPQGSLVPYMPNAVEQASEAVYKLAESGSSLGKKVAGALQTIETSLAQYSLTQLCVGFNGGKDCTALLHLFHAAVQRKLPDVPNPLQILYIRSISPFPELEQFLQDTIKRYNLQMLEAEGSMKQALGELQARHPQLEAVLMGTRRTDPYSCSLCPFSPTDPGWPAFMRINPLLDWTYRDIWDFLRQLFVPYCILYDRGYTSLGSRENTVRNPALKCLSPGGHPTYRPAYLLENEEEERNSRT
UniProt O43427: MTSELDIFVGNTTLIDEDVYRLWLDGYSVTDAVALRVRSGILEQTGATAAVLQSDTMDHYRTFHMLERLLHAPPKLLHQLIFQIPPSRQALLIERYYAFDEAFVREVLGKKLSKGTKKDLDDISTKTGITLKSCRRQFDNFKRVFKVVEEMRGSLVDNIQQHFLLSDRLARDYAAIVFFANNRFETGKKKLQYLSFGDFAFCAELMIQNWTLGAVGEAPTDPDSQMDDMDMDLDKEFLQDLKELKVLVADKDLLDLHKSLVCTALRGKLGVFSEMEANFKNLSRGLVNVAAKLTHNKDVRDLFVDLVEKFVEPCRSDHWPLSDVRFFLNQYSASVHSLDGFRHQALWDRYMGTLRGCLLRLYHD
UniProt Q9NXK8: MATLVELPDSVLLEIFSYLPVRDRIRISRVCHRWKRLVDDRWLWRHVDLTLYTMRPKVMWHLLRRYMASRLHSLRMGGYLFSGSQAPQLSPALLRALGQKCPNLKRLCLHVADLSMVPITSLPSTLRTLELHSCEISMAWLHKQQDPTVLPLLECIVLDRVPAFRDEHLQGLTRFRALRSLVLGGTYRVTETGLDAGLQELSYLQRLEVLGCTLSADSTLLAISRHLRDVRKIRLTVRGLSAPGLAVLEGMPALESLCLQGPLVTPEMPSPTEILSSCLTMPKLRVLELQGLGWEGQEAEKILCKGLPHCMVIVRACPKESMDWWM
UniProt P02751, whole entry, looked up: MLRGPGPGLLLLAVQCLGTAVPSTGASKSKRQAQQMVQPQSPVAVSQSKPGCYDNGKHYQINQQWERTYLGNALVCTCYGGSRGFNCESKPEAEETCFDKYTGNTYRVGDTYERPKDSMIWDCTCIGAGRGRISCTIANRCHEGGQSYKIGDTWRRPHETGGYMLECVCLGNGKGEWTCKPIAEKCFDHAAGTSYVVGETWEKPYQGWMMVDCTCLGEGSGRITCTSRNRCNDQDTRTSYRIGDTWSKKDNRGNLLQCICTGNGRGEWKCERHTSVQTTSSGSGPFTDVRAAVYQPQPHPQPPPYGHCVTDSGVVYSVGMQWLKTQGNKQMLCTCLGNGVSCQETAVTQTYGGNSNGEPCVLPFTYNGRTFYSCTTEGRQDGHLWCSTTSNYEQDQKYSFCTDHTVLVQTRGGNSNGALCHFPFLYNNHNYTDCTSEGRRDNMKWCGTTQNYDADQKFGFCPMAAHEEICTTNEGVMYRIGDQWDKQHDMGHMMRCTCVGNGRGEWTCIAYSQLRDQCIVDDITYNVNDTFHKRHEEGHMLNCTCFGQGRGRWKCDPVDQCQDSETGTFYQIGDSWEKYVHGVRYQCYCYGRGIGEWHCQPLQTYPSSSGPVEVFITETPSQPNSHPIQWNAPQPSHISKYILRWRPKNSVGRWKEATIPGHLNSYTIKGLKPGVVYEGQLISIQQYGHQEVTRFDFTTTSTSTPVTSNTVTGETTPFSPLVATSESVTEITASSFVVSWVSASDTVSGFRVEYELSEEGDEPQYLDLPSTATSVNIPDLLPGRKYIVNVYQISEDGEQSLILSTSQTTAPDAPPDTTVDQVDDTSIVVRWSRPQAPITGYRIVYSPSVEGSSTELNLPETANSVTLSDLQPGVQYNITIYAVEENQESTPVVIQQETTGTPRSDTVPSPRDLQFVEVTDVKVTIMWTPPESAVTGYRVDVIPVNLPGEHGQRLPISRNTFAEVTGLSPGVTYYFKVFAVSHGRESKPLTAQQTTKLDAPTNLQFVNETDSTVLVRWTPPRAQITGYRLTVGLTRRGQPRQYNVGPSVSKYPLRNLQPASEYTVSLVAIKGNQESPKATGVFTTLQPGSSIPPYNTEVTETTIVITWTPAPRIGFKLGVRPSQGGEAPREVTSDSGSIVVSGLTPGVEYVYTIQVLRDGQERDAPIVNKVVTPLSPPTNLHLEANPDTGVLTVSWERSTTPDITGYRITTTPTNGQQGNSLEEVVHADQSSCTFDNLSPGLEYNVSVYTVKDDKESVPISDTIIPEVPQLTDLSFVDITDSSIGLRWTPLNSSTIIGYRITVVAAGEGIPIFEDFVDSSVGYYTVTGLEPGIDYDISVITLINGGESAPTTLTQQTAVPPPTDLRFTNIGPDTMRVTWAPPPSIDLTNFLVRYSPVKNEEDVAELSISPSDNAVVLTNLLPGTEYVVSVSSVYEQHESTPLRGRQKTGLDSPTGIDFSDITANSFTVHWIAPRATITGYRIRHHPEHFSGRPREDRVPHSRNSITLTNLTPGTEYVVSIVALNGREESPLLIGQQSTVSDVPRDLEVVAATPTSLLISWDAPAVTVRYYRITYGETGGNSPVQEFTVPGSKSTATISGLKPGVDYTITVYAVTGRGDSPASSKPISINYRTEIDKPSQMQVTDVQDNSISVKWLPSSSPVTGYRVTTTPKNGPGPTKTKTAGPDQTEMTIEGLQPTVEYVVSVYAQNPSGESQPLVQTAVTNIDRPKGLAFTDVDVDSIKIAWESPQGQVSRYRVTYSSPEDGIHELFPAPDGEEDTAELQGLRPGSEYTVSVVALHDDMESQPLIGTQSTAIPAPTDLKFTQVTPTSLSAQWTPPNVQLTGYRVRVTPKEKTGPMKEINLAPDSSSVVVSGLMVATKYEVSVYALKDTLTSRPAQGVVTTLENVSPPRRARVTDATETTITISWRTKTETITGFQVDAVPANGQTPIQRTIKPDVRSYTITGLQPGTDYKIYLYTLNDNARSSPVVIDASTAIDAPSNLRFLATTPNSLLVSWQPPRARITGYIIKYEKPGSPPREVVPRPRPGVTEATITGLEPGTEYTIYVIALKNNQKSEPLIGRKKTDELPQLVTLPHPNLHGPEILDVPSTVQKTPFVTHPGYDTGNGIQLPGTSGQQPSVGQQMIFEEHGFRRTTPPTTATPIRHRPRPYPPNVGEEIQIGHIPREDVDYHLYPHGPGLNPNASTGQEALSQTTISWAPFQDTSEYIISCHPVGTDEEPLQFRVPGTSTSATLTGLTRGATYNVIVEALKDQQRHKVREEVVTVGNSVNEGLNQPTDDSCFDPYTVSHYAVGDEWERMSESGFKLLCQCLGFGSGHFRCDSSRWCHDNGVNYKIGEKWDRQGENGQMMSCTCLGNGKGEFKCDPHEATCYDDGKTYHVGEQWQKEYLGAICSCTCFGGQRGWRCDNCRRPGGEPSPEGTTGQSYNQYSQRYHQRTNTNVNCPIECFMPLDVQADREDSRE
UniProt P22830: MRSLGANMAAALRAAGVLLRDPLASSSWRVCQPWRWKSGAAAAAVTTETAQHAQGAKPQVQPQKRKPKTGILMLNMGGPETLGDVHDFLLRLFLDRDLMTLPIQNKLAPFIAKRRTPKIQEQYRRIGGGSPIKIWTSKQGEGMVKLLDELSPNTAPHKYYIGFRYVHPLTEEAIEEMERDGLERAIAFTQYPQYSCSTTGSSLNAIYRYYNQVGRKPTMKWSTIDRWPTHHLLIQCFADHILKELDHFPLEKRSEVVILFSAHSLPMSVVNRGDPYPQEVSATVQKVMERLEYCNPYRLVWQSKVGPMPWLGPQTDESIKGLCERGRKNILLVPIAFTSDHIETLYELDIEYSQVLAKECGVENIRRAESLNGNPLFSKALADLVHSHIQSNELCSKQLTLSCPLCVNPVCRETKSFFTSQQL
UniProt O95466, whole entry, looked up: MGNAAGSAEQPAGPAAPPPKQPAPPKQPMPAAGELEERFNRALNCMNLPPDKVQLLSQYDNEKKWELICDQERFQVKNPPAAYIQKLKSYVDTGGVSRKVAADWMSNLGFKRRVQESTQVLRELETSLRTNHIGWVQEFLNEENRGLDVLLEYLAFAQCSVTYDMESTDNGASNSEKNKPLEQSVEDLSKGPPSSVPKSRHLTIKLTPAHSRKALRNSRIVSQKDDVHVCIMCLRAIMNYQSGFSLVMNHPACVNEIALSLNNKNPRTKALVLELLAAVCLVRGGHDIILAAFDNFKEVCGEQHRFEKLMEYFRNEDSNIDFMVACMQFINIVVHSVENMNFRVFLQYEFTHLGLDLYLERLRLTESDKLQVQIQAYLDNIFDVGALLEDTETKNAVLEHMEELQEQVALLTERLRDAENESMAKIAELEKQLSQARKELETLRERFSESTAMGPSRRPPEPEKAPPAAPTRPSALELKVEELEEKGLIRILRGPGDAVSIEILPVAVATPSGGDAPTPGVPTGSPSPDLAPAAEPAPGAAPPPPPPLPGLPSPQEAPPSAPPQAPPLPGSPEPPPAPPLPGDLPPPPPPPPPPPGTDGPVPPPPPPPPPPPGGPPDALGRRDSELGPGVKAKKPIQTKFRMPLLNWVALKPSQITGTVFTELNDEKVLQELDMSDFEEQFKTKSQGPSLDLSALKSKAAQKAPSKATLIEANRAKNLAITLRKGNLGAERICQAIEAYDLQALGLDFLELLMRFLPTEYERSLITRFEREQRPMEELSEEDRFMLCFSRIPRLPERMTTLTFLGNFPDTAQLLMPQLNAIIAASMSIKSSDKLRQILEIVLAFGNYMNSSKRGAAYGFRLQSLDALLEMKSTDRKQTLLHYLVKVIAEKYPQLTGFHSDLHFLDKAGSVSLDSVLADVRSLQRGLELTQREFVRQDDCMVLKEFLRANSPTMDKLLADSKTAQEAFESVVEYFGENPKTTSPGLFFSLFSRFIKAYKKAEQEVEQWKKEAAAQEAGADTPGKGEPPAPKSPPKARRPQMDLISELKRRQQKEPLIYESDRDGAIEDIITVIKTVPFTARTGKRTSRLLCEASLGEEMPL
UniProt Q13451: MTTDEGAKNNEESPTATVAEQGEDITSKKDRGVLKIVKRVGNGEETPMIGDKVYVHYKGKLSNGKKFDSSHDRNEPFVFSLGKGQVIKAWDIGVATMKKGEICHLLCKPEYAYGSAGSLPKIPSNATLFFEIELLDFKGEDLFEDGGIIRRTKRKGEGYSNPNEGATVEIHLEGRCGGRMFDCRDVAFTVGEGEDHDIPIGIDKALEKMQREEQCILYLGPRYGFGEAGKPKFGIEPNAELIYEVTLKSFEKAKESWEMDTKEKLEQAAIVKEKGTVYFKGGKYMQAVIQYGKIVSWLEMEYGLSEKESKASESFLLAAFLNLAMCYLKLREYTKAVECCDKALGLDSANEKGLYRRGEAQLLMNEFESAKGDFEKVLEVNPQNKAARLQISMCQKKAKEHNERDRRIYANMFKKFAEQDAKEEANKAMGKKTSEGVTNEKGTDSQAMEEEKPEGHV

What follows are targets tested with Cn1cc(-c2ccc3c(c2)CCN3C(=O)Cc2cccc(C(F)(F)F)c2)c2c(N)ncnc21 (assay: log2 fold change, soluble protein after heating vs DMSO (PISA); higher = thermal stabilisation; K562 lysate, 10 uM; active = over 0.2 and 3.5 SD of the protein, either way, in both replicates (recomputed)).
Method in brief: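 Thermal stability, expressed as log-two fold change relative to solvent controls, is given from duplicates. Crude K562 extract in PBS pH 7.4 with 1 mM MgCl2, at 1 mg/mL protein, was treated with 10 μM compound for 30 min and heated in aliquots for 3 min across 48°C-58°C. After pooling, adjustment to 0.5% NP-40 at 4°C and centrifugation at 21,000xg for 90 min, supernatant protein was measured by TMTpro 16plex LC-MS/MS with channel sums equalised.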

log2 fold change, inactive:
FKBPL (UniProt Q9UIM3) -0.049, FAR1 (UniProt Q8WVX9) 0.016, FLII (UniProt Q13045) 0.008, FAU (UniProt E9PR30) 0.052, FGFR1OP (UniProt O95684) -0.02, FNTB (UniProt P49356) -0.022, FBXO6 (UniProt Q9NRD1) -0.022, FGD6 (UniProt Q6ZV73) 0.11, FLAD1 (UniProt Q8NFF5) 0.019, FLNC (UniProt Q14315) -0.034, FAM8A1 (UniProt Q9UBU6) -0.064, FBXW9 (UniProt Q5XUX1) -0.027, FAM98C (UniProt Q17RN3) -0.161, FIBP (UniProt O43427) -0.043, FBXL12 (UniProt Q9NXK8) -0.046, FBLL1 (UniProt A6NHQ2) 0, FN1 (UniProt P02751) -0.008, FECH isoform 2 (UniProt P22830) 0.009, FAM98A (UniProt Q8NCA5) -0.022, FASN (UniProt P49327) 0.013, FKBP2 (UniProt P26885) -0.001, FMNL1 isoform 3 (UniProt O95466) 0.009, FKBP8 isoform 2 (UniProt Q14318) 0.011, FBXL18 isoform 4 (UniProt Q96ME1) 0.013, FKBP5 (UniProt Q13451) 0.004, FDXR isoform 7 (UniProt P22570) 0.035, FLNB isoform 8 (UniProt O75369) -0.038, FBXL8 (UniProt Q96CD0) -0.028, FERMT3 (UniProt Q86UX7) -0.008, FNBP1L (UniProt Q5T0N5) -0.051, FBXO3 (UniProt Q9UK99) 0.034, FEZ2 isoform 2 (UniProt Q9UHY8) 0.009, FLCN (UniProt Q8NFG4) 0.243
